Measurements published in US5281263A, “Azo dyes containing a carboxy group” (Imperial Chemical Industries PLC, priority 1991, dated 1994).

Legend:
[1] = shade, bronzing and optical density of image printed on paper with an ink containing the dye
[2] = water fastness of image printed on paper with an ink containing the dye; details: for water fastness of printed image: 3 parts compound in water (92.5 parts) and diethylene glycol (7.5 parts)
[3] = acid, neutral or alkaline paper, thermal ink jet printing machine, ammonium salt
[4] = plain paper, thermal ink jet, 3 parts compound in water (92.5 parts) and diethylene glycol (7.5 parts)
[5] = plain paper, thermal ink jet, ink composition not stated

| SMILES | shade of printed image [1, 4] | water fastness of printed image ([2]; plain paper, thermal ink jet) | other results |
| --- | --- | --- | --- |
| O=C(O)c1ccc(Nc2ccc3cc(S(=O)(=O)O)c(N=Nc4ccc(N=Nc5cccc(C(=O)O)c5)c5ccccc45)c(O)c3c2)cc1 [Example 1] |  |  | shade of printed image [1, 3]: deep black shade; resistance to water of printed image [2, 3]: very high resistance to water |
| O=C(O)c1ccc(N=Nc2ccc(N=Nc3c(S(=O)(=O)O)cc4ccc(Nc5cccc(C(=O)O)c5)cc4c3O)c3ccccc23)cc1 [Example 3] | attractive deep black shade | very high water fastness |  |
| O=C(O)c1ccc(Nc2ccc3cc(S(=O)(=O)O)c(N=Nc4ccc(N=Nc5cccc(C(=O)O)c5)c5ccc(S(=O)(=O)O)cc45)c(O)c3c2)cc1 [Example 4] | deep neutral black shade | very high water fastness | bronzing of printed image [1, 4]: no bronzing |
| O=C(O)c1cccc(N=Nc2ccc(N=Nc3c(S(=O)(=O)O)cc4ccc(Nc5cccc(C(=O)O)c5)cc4c3O)c3cc(S(=O)(=O)O)ccc23)c1 [Example 6] | attractive deep black shade | very high water fastness |  |
| Cc1ccc(C(=O)O)cc1N=Nc1ccc(N=Nc2c(S(=O)(=O)O)cc3ccc(Nc4ccc(C(=O)O)cc4)cc3c2O)c2ccccc12 [Example 7] |  |  | shade of printed image [1, 5]: deep black shade; water fastness / resistance to water of printed image [2, 5]: very high water fastness |
